The text below walks through data of publication PMC12530846, “Development of Novel Anticancer Pyrazolopyrimidinones Targeting Glioblastoma” (Chemmedchem, 2025).

Common to all, as to assay type: cell-based, human
Data set [1] has as its system U‐251 MG and HEK293 cells. Briefly: Statistical comparison of dose–response in U‐251 MG versus HEK293 (selectivity, HIT criteria). The note with it: 95% CI of U‐251 MG and HEK293 IC50 not overlapping.
In the next data set the test system is HEK293 cells. Briefly: MTT cell viability assay, noncancerous HEK293 cells, 5 days treatment. The note with it: MTT dose–response curve. The method, then:
(§1) Dose–response curves for each of the pyrazolo[1,5‐α]pyrimidinones were performed to determine the cytotoxic effect of the compounds on a cancerous, U‐251 MG cell line and a noncancerous, HEK293 cell line. The synthesized pyrazolopyrimidinones were dissolved in DMSO (Merck) to obtain a stock solution which was stored at −20 °C. […] U‐251 MG and HEK293 cells were seeded at a density of 2 x 10^3 cells per well (100 μL) in a 96‐well plate (Sarstedt) and incubated for 24 h prior to each treatment to allow for cell adhesion. The stock solution was diluted in media to working concentrations of 100, 75, 50, 25, 10, 5, and 0.1 μM. Media on the seeded cells was then replaced with the working concentrations of the compound or the controls in a 96‐well plate (100 μL). The treated plate was incubated at 37 °C in the humidified incubator for 5 days. Cell viability was assessed after 5 days using the MTT assay. Dose–response curves were then plotted relative to the positive control whereby cells were treated 20% DMSO and a negative control whereby cells were maintained in fresh DMEM.
(§2) To determine the extent of the cytotoxic effect of the pyrazolopyrimidinone on each cell line, the cell viability at each working concentration was determined via the MTT assay (Merck). The working solution of MTT used was 5 mg MTT per 1 ml of PBS diluted in 9 ml of media. After 5 days of incubation, the treatment was removed from each of the wells and replaced with 100 μL of fresh MTT solution. The plate was then incubated for 3 h at 37 °C in a humidified incubator to allow the reduction of the yellow tetrazolium salt to purple formazan crystals. After the incubation, the MTT solution was removed from the wells and replaced with 100 μL of DMSO for 15 min to dissolve the formazan crystals. The absorbance was read at 570 nm using a spectrophotometric microplate reader (Thermo Fisher Scientific).
(§3) Each of the experiments was performed at least three independent times, with a minimum of six technical replicates per experiment. Statistical analysis was carried out using GraphPad Prism version 8.0.0 (GraphPad Softwares, Inc.). Curve fitting and the IC50 values were obtained through the dose–response curves using nonlinear regression. To determine if the dose–response curves were statistically distinct and not overlapping, extra sum‐of‐squares F‐test was used, and a p‐value was obtained. The effect of compound treatment on both cell lines was statistically compared via two‐way ANOVA with Tukey's post‐test. The CytExpert (Beckman Coulter) software was used for flow cytometry analysis. Graphs represent the % dead cells whereby the total number of dead cells was divided by the total cell population. The statistical significance of the flow cytometry results was determined via one‐way analysis of variance (ANOVA) with Dunnett's T3 multiple comparison post‐test. Data is presented as the mean ± standard error of mean (SEM). Summary of results from statistical analysis reports p‐values as follows: ≥0.05 (ns), 0.01–0.05 (*), 0.001–0.01 (**), […], and <0.0001(****).
(Formazan colour is commonly taken as a measure of viable cells.)

In the next data set the test system is U‐251 MG cells. The data set can be described thus: MTT cell viability assay, U‐251 MG glioblastoma cells, 5 days treatment. To be noted: MTT dose–response curve. The method, then: as §1, §2, §3

Structures are written as SMILES.

With `Cc1cc(C)cc(-c2cc(=O)n3nc(C(C)C)cc3[nH]2)c1` [Compound 3], in data set [1], the “Difference in IC50 ranges‐Yes/No” value was “No”. Besides, the “HEK293 Hillslope” value in the data set with HEK293 cells is recorded as −1.114. Also, the “U‐251 MG Hillslope” value in the data set on U‐251 MG cells is reported as −0.5025.
For `CC(C)c1cc2[nH]c(-c3ccccc3)cc(=O)n2n1` [Compound 2], in that order: “Yes”, −1.375 and −1.273.
The like results for `O=c1cc(-c2cc(C(F)(F)F)cc(C(F)(F)F)c2)[nH]c2cc(-c3ccc(F)cc3)nn12` [Compound 6] were, in that order, “Yes”, −7.075 and −5.948.
As to `CCc1cc(=O)n2nc(C(C)C)cc2[nH]1` [Compound 19], in the data set with U‐251 MG cells, the “U‐251 MG Hillslope” value was −1.995.
Take `COc1ccc(-c2cc3[nH]c(-c4cc(C(F)(F)F)cc(C(F)(F)F)c4)cc(=O)n3n2)cc1` [Compound 11]: the “Difference in IC50 ranges‐Yes/No” value in data set [1] is given as “No”. In addition, in the data set on HEK293 cells, the “HEK293 Hillslope” value is reported as −4.056. The “U‐251 MG Hillslope” value in the data set with U‐251 MG cells is −0.9642.
For `CC(C)c1cc2[nH]c(-c3cc(C(F)(F)F)cc(C(F)(F)F)c3)cc(=O)n2n1` [Compound 4], in that order: “Yes”, −2.838 and −1.384.
For the molecule `O=c1cc(-c2cc(C(F)(F)F)cc(C(F)(F)F)c2)[nH]c2cc(-c3ccc(C(F)(F)F)cc3)nn12` [Compound 9], the “Difference in IC50 ranges‐Yes/No” value in data set [1] is on record as “Yes”. Moreover, in the data set on HEK293 cells, the “HEK293 Hillslope” value is −10.95. In addition, the “U‐251 MG Hillslope” value with U‐251 MG cells was −3.665.
`Cc1cc(=O)n2nc(-c3ccccc3)cc2[nH]1` [Compound 14]: the “U‐251 MG Hillslope” value with U‐251 MG cells is −1.263.
Still for that read-out and setting: the figure for `O=c1cc(-c2cc(C(F)(F)F)cc(C(F)(F)F)c2)[nH]c2cc(-c3cccc(C(F)(F)F)c3)nn12` [Compound 20] is −4.045.
For the molecule `O=c1cc(-c2cc(C(F)(F)F)cc(C(F)(F)F)c2)[nH]c2cc(-c3ccc(Cl)cc3)nn12` [Compound 8], the “Difference in IC50 ranges‐Yes/No” value in data set [1] is on record as “Yes”. The “HEK293 Hillslope” value in the data set on HEK293 cells is reported as −3.976. Besides, in the data set on U‐251 MG cells, the “U‐251 MG Hillslope” value is −1.561.
For `O=c1cc(-c2cc(C(F)(F)F)cc(C(F)(F)F)c2)[nH]c2cc(-c3ccccc3)nn12` [Compound 5], the “Difference in IC50 ranges‐Yes/No” value in data set [1] is recorded as “Yes”. For the same molecule, the “HEK293 Hillslope” value in the data set with HEK293 cells is on record as −1.491. In addition, in the data set on U‐251 MG cells, the “U‐251 MG Hillslope” value is −0.2984.
With `O=c1cc(-c2cc(C(F)(F)F)cc(C(F)(F)F)c2)[nH]c2cc(-c3ccc(Br)cc3)nn12` [Compound 7], in the data set on HEK293 cells, the “HEK293 Hillslope” value is −10.05. Moreover, the “U‐251 MG Hillslope” value in the data set with U‐251 MG cells is −3.243.
In the case of `O=c1cc(-c2cc(C(F)(F)F)cc(C(F)(F)F)c2)[nH]c2cc(-c3ccc([N+](=O)[O-])cc3)nn12` [Compound 10], the “HEK293 Hillslope” value in the data set on HEK293 cells is recorded as −4.962. In addition, in the data set with U‐251 MG cells, the “U‐251 MG Hillslope” value was −3.232.
For `CC(C)c1cc2[nH]c(C(C)C)cc(=O)n2n1` [Compound 18], in that order: −0.5581 and −2.055.
For the molecule `O=c1cc(-c2cc(C(F)(F)F)cc(C(F)(F)F)c2)[nH]c2cc(-c3ccccc3Br)nn12` [Compound 22], the “Difference in IC50 ranges‐Yes/No” value in data set [1] is reported as “Yes”. The “HEK293 Hillslope” value in the data set with HEK293 cells is −3.518. Further, the “U‐251 MG Hillslope” value with U‐251 MG cells is recorded as −0.2934.
As for `O=c1cc(-c2ccccc2)[nH]c2cc(-c3ccccc3)nn12` [Compound 15], the “HEK293 Hillslope” value in the data set with HEK293 cells is −5.573. Also, the “U‐251 MG Hillslope” value in the data set on U‐251 MG cells is −1.614.
`O=c1cc(-c2cc(C(F)(F)F)cc(C(F)(F)F)c2)[nH]c2cc(-c3cccc([N+](=O)[O-])c3)nn12` [Compound 23]: the “Difference in IC50 ranges‐Yes/No” value in data set [1] is given as “Yes”. Moreover, the “HEK293 Hillslope” value with HEK293 cells is −6.753. Further, in the data set on U‐251 MG cells, the “U‐251 MG Hillslope” value is on record as −1.177.
With `CC(C)(C)c1cc2[nH]c(-c3ccccc3)cc(=O)n2n1` [Compound 17], the “U‐251 MG Hillslope” value with U‐251 MG cells is −5.735.
`Cc1cc(=O)n2nc(C(C)C)cc2[nH]1` [Compound 1]: in data set [1], the “Difference in IC50 ranges‐Yes/No” value was “No”. Also, the “HEK293 Hillslope” value in the data set on HEK293 cells is on record as −0.4501. Further, in the data set on U‐251 MG cells, the “U‐251 MG Hillslope” value was −0.5490.
For `O=c1cc(-c2cc(C(F)(F)F)cc(C(F)(F)F)c2)[nH]c2cc(-c3cccc(Cl)c3)nn12` [Compound 12], in that order: “No”, −4.056 and −0.8934.
For `O=c1cc(-c2cc(C(F)(F)F)cc(C(F)(F)F)c2)[nH]c2cc(-c3cccc(Br)c3)nn12` [Compound 21, 5‐(3,5‐Bis(trifluoromethyl)phenyl)‐2‐(3‐bromophenyl)pyrazolo[1,5‐α]pyrimidin‐7(4¬H)‐one], the “Difference in IC50 ranges‐Yes/No” value in data set [1] was “Yes”. For the same molecule, the “HEK293 Hillslope” value in the data set on HEK293 cells was −1.907. Further, the “U‐251 MG Hillslope” value in the data set with U‐251 MG cells is on record as −0.3128.
